Reference: PubChem BioAssay AID1259308 (NCATS, 2017)
Purpose: 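Knock-downs that increase output of a recombinant reporter protein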 (primary screen). Cells: human HEK293 embryonic kidney cells stably expressing firefly luciferase (HEK-CMV-Luc2-Hygro). Knock-down reagent: single siRNA against human genes, 0.8 pmol siRNA per well. Time to read-out: 72 h. Detection: 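Luciferase light (ONE-Glo) measured on one replicate plate set and viability (CellTiter-Glo) on the other, scaled to a negative control siRNA, with robust z-scores and luciferase per cell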. Reading the numbers: total luciferase, z-score and total luciferase, % of control: higher = more reporter protein produced. Hit rule: 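Active when the median/MAD z-score for overall luciferase is greater than 3; a gene was taken forward for validation with new siRNAs if at least two of its three siRNAs passed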. Meaning of the calls: active = raised luciferase; inactive = no rise.
The deposit covers about 59,000 reagents; below is a random part of them. Of all reagents, about 1,510 (2.6%) were called active. 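Calls use total luciferase alone and ignore viability, so some active siRNAs may act by altering cell number.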 A number with no mark means an inactive call. The numbers tell different reagents against one gene apart. Not all columns of the deposit are shown.

Target gene	reagent	total luciferase, z-score	total luciferase, % of control
ZC3HAV1	1	-1.63	49.4
ZC3HAV1	2	1.28	107
ZC3HAV1	3	-0.64	69.2
SUPT4H1	1	-0.908	63.8
SUPT4H1	2	-1.24	57.3
SUPT4H1	3	0.306	88
PALB2	1	0.0933	83.7
PALB2	2	0.132	84.5
PALB2	3	1.86	119
ZRSR2	1	0.204	85.9
ZRSR2	2	0.651	94.8
ZRSR2	3	1.21	106
LINC00847	1	3.4 (active)	149
LINC00847	2	1.2	106
LINC00847	3	0.561	93
LINC00869	1	-0.119	79.5
LINC00869	2	-0.308	75.8
LINC00869	3	-0.0867	80.2
UFL1	1	0.0414	82.7
UFL1	2	-0.464	72.7
UFL1	3	2.78	137
FOXP2	1	0.557	93
FOXP2	2	0.598	93.8
FOXP2	3	0.413	90.1
VSIG10L	1	0.542	92.7
VSIG10L	2	2.43	130
VSIG10L	3	0.22	86.3
LOC401589	1	0.503	91.9
LOC401589	2	-0.0455	81
LOC401589	3	1.14	104
GIMAP1	1	5.81 (active)	197
GIMAP1	2	-1.21	57.7
GIMAP1	3	-0.408	73.8
ELSPBP1	1	0.138	84.6
ELSPBP1	2	0.783	97.5
ELSPBP1	3	-0.531	71.3
EPDR1	1	2.38	129
EPDR1	2	0.767	97.1
EPDR1	3	-0.613	69.7
YBX1	1	1.11	104
YBX1	2	0.0444	82.8
YBX1	3	-0.194	78
TMEM54	1	1.7	116
TMEM54	2	0.00276	81.9
TMEM54	3	-1.36	54.9
FGFR1	1	0.155	85
FGFR1	2	-0.362	74.7
FGFR1	3	-0.882	64.3
DLL3	1	-1	62
DLL3	2	-2.86	24.9
DLL3	3	0.322	88.3
GGTLC2	1	0.274	87.3
GGTLC2	2	-1.94	43.4
GGTLC2	3	0.208	86
ULBP3	1	-0.825	65.5
ULBP3	2	0.197	85.8
ULBP3	3	-0.395	74
KLHL32	1	-0.563	70.7
KLHL32	2	0.0106	82.1
KLHL32	3	-0.516	71.6
COL5A2	1	0.674	95.3
COL5A2	2	0.581	93.4
COL5A2	3	-0.179	78.3
KCNJ14	1	-1.45	53.1
KCNJ14	2	0.808	98
KCNJ14	3	-0.557	70.8
APOO	1	0.365	89.2
APOO	2	0.818	98.1
APOO	3	1.61	114
GJC3	1	2.29	127
GJC3	2	3.61 (active)	154
GJC3	3	0.544	92.7
CD4	1	0.742	96.6
CD4	2	-0.36	74.7
CD4	3	1.3	108
